Measured data: PubChem BioAssay AID602196 (INSERM, 2012)
In all, the deposit lists about 23,000 reagents; below is a part drawn at random. In the full data, 455 (2%) are marked active. 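Active includes both protection and sensitisation; some change values fall well beyond the stated -50 to +50 range.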 A number with no mark means an inactive call. No sequences are given here. Not given: the amount of reagent.

- Aim: 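Modifiers of cisplatin sensitivity in A549 cells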
- Cells: human A549 lung cancer cells
- Knock-down reagent: siRNA pair against human genes
- Time to read-out: 48 h transfection before cisplatin; time from cisplatin to read-out not stated
- Challenge: cisplatin at a dose killing half of control-siRNA cells; exact dose and duration not given
- Measurement: 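Cisplatin cell death as a shift from the 50% death seen with control siRNA; siRNAs toxic or growth-blocking alone scored 0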
- Reading the numbers: two-siRNA summed score (-2 to +2): higher = both siRNAs protect from cisplatin killing; -2 means both sensitise; mean protection from cisplatin (shift in death) and protection from cisplatin (shift in death), siRNA C and protection from cisplatin (shift in death), siRNA D: higher = protection from cisplatin killing
- Hit rule: 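siRNAs harmful alone (LDH or WST-1) get 0; others get +1 for less and -1 for more cisplatin killing; genes are active when the two siRNAs give the same sign, summing to ±2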
- Calls: active = both siRNAs shift cisplatin killing the same way; inactive = no consistent shift, or siRNA harmful alone

gene | two-siRNA summed score (-2 to +2) | mean protection from cisplatin (shift in death) (%) | protection from cisplatin (shift in death), siRNA C (%) | protection from cisplatin (shift in death), siRNA D (%)
ADH6 | 0 | -9.3 | -5 | -13.6
SFXN4 | 0 | 7.2 | 10.1 | 4.3
CIRBP | 0 | 0.7 | -5.1 | 6.6
LOC344423 | 0 | 0 | 5.7 | -5.8
CFAP77 | 0 | 11.8 | 13 | 10.6
EIF4E2 | 0 | 8.6 | 2 | 15.1
LOC442150 | 0 | 5.2 | 6.9 | 3.5
CER1 | 1 | -4.2 | 22.8 | -31.3
ARL13B | 0 | -1.3 | -1.6 | -1.1
BCO1 | 0 | 0.3 | -0.2 | 0.8
ZNF445 | 1 | 10.9 | 1.2 | 20.6
TNFRSF19 | 0 | -0.4 | 0.7 | -1.4
LOC388550 | 1 | 7.4 | 16.2 | -1.5
MCTP2 | 0 | 9.1 | 7.8 | 10.4
EMSY | 0 | -5.2 | -17.3 | 6.9
LOC285101 | 1 | 15.1 | 10.7 | 19.4
WARS1 | 0 | -7.9 | -14.4 | -1.4
CWF19L1 | 0 | 10.1 | 3.8 | 16.3
FMO9P | -1 | -3.7 | 7.9 | -15.3
CYLC1 | 0 | 7.6 | 5.6 | 9.7
GRM6 | 0 | 1.5 | 14.8 | -11.8
AKIRIN1 | 0 | 5.7 | 11.2 | 0.1
POF1B | 0 | 1.2 | 10.3 | -7.9
LDB3 | 0 | 10.6 | 25.1 | -3.9
LOC441164 | 0 | 4.7 | -2.4 | 11.9
SLC27A3 | 0 | 2.2 | 12.1 | -7.6
POLD4 | 0 | 9.1 | 14.9 | 3.3
ZFYVE28 | 0 | -2.4 | 3.1 | -7.9
SLC30A2 | 0 | 22.1 | 14.4 | 29.7
HECA | 1 | 7.3 | 19.6 | -5
PVALB | 0 | 8 | 1.8 | 14.2
DGKA | 1 | 11.2 | 10.9 | 11.4
FAM3B | 0 | -4.8 | 7.2 | -16.7
HLA-DOB | 1 | 15.4 | 0.3 | 30.5
LOC400855 | 0 | 8.5 | 16 | 1
CCR4 | 0 | -4.3 | 4.3 | -12.9
GNB4 | -1 | -15.4 | -2.6 | -28.1
TEAD3 | 0 | 3.4 | 6 | 0.9
GPR35 | -1 | -4.2 | -17.7 | 9.3
